Measured values from the DeepSol protein solubility set.

Experiment: soluble on expression in E. coli; label from the status in PepcDB or PDB records
For “ALWQFNGMIKCKIPSSEPLLDFNNYGCYCGLGGSGTPVDDLDRCCQTHDNCYKQAMKLDSCKVLVDNPYTNNYSYSCSNNEITCSSENNACEAFICNCDRNAAICFSKVPYNKEHKNLDMMNC”, the “soluble on expression in E. coli” value was “soluble”. In the case of “ASDEEIQDVSGTWYLKAMTVDREFPEMNLESVTPMTLTTLEGGNLEAKVTMLISGRCQEVKAVLEKTDEPGKYTADGGKHVAYIIRSHVKDHYIFYSEGELHGKPVRGVKLVGRDPKNNLEALEDFEKAAGARGLSTESILIPRQSETCSPGSAWSHPQFEK”, the “soluble on expression in E. coli” value is reported as “soluble”. In the case of “FINVGERCNVAGSRKFLRLINEKKYEEALSIARKQVEDGALVIDVNMDDGLLDAREEMTTFLNLVMSEPDIARVPVMIDSSKWEVIEAGLKCLQGKSIVNSISLKEGEEIFIEHARLIKKLGAAVVVMAFDEKGQADTFERKIEVCARAYKILTEQVDFNPHDIIFDPNVLAVATGIEEHDNYAVDFIKATGWIKKNLPGAHVSGGVSNLSFSFRGNNYIREAMHAVFLYHAIRQGMDMGIVNPAASVLYTDIPADVLERIEDVVLNRRPDAAERLIETAEA”, the “soluble on expression in E. coli” value is reported as “soluble”. For “GEKILYSWGELLGKWHSNLGARPKGLSTLVKSGVPEALRAEVWQLLAGCHDNQAMLDRYRILITKDSAQESVITRDIHRTFPAHDYFKDTGGDGQESLYKICKAYSVYDEDIGYCQGQSFLAAVLLLHMPEEQAFCVLVKIMYDYGLRDLYRNNFEDLHCKFYQLERLMQEQLPDLHSHFSDLNLEAHMYASQWFLTLFTAKFPLCMVFHIIDLLLCEGLNIIFHVALALLKTSKEDLLQADFEGALKFFRVQLPKRYRAEENARRLMEQACNIKVPTKKLKKYEKEYQTMRESQLQQEDPMDRYKFVYL”, the “soluble on expression in E. coli” value was “soluble”. In the case of “GHDGEPHDLTKLLIAEVKSRPGNSQCCDCGAADPTWLSTNLGVLTCIQCSGVHRELGVRFSRMQSLTLDLLGPSELLLALNMGNTSFNEVMEAQLPSHGGPKPSAESDMGTRRDYIMAKYVEHRFARRCTPEPQRLWTAICNRDLLSVLEAFANGQDFGQPLPGPDAQAPEELVLHLAVKVANQASLPLVDFIIQNGGHLDAKAADGNTALHYAALYNQPDCLKLLLKGRALVGTVNEAGETALDIARKKHHKECEELLEQAQAGTFAFPLHVDYSWVISTENLSSDSSLSSPSALNSLSSPSALNSTASNSPGIEGLSNKEMRILMLGLDAAGKTTILYKLKLGQSVTTIPTVGFNVETVTYKNVKFNVWDVGGQDKIRPLWRHYYTGTQGLIFVVDCADRDRIDEARQELHRIINDREMRDAIILIFANKQDLPDAMKPHEIQEKLGLTRIRDRNWYVQPSCATSGDGLYEGLTWLTSNYKSKLAAALEHHHHHH”, the “soluble on expression in E. coli” value is reported as “soluble”. In the case of “GHHHHHHAIAENLYFQSNKLKSSQKDKVRQFMIFTQSSEKTAVSCLSQNDWKLDVATDNFFQNPELYIRESVKGSLDRKKLEQLYTRYKDPQDENKIGIDGIQQFCDDLALDPASISVLIIAWKFRAATQCEFSKQEFMDGMTELGCDSIEKLKAQIPKMEQELKEPGRFKDFYQFTFNFAKNPGQKGLDLEMAIAYWNLVLNGRFKFLDLWNKFLLEHHKRSIPKDTWNLLLDFSSMIADDMSNYDEEGAWPVLIDDFVEFARPQIAGTKSTTV”, the “soluble on expression in E. coli” value is reported as “not soluble”. With “LAPGRLLYKGERGGPFHKILAPSHKREAVAHLQSLFEVSQRRACDALGVDRTTVRYQSRRPDDAEARERIRVLAGERRRFGYRRLHWLLSREGISMNHKKFRRLYREERLQVRRRGGRKRALGTRSPMTIPQGCNQRWSLDFVSDALTCGRRFRIFAVVDDFSRECVRLIADTSISGARLARELDMAITERGARPLMVVSDDGTELTSMSILRWSKERNVEWHYIAPGKPQQNGFVESFNARLRDECLNETLFTSLPQARSVLAAWRHDYNPVS” the “soluble on expression in E. coli” value was “soluble”. In the case of “LIACVANDDVFSESETRAKFESLFRTYDKDTTFQYFKSFKRVRINFSNPLSAADARLRLHKTEFLGKEMKLYFAQTLHIGSSHLAPPNPDK”, the “soluble on expression in E. coli” value is reported as “soluble”. With “MAMKSVAVLTKGMFGRIPAQLAVSSVPSNTIQKRSNYKFVGMPNETDGTLAGDLNYGLHNVFFTELFRGFGVMLGHVFMEPATINYPFEKGPLSSRFRGEHALRRYPSGEERCIACKLCEAICPAQAITIEAETRPDGSRRTTRYDIDMTKCIYCGLCQEACPVDAIVEGPNFEYSTETHEELLYNKEKLLLNGDRWEPELASNLQAEYLYR” the “soluble on expression in E. coli” value was “not soluble”. For “MASAGDSILALTGKRTTGQGIRSQNVTAAVAIANIVKSSLGPVGLDKMLVDDVGDVIVTNDGATILKQLEVEHPAGKVLVELAQLQDEEVGDGTTSVVIVAAELLKRADELVKQKVHPTTIINGYRLACKEAVKYISENISFTSDSIGRQSVVNAAKTSMSSKIIGPDADFFGELVVDAAEAVRVENNGKVTYPINAVNVLKAHGKSARESVLVKGYALNCTVASQAMPLRVQNAKIACLDFSLMKAKMHLGISVVVEDPAKLEAIRREEFDITKRRIDKILKAGANVVLTTGGIDDLCLKQFVESGAMAVRRCKKSDLKRIAKATGATLTVSLATLEGDEAFDASLLGHADEIVQERISDDELILIKGPKSRTASSIILRGANDVMLDEMERSVHDSLCVVRRVLESKKLVAGGGAVETSLSLFLETYAQTLSSREQLAVAEFASALLIIPKVLASNAARDSTDLVTFLRA”, the “soluble on expression in E. coli” value was “not soluble”. With “MASFRKNHVIIDSSDSSEDEDRKERHSSSSEVDETASMRSTDSSEPPRTIIDASLNSMASTVYTSTPNSKQSISRTGSSTTYGSSKCSTDDHYRSRSFIDNSFEKPVTPITKKLQESDEPRAKQQLRERLLRKSIKQQSDQDLTGGSSRSGWGTGENSSLESSDLINSHFSPIAKTFRHASDLDDSMNTSPPPNRSTLPSVETSSGNSPQTPYPGSPEASPQPSPPKNTASELQKLSIKELEANKDKKLKLLKFSSNLPDNGARVKLQVDEITEEIERRIINGVTDTMVVDKTTAIPPPPQPKNLIAPIPQDFAAMLDKNGRKVMSGRMTEQKILKVNKISDRLMQQLADATHTIPAETDLTDTPDGLLVELMPHQKAGLRWLVWREGQPHSGGILADDMGLGKTLSMLSLIVHQKAARRARKESGDNAADKEKRRVAKEEGLYPSNGTLIIAPASLIHQWEAEINRRLESDLLSVFMFHGTKKQRQIEPKELARYDVVITTYTLAANELMEKKAAGSKKEEDSDDESENEENPRRPAGKNDSPLARVAWSRVILDEAHAIKNRLSQCSKAVCRLSSFSRWCLSGTPIHNNLWDLYSLVRFLRIPLFGDRKFWAESIMPMKTGMADRVNLLTKNLMLRRTKDQQCALTNKKIVNLKEKKIEIHELEMVGDEANGYAIMMEAAQKLVKQIVTNTDDIQKYGQIRRRRQRGNDDEFANPYNVGPRNLAGNSNFQNMSCILLLLMRLRQACVHFHITKSGMDLDAFKINGGDDEDADMKELENLMEKTMADLTIADSDNDEEGVDTNKEEPKQPPTRIFEPDFISCKMAKTLEVVREILEKKEKVVIVSQWTSVLNLVEKHIQAGGHNYTSITGQVLVKDRQERVDSFNQEKGGAQVMLLSLTAGGVGLNLIGGNHLIMVDLHWNPALEQQACDRIYRMGQKKEVFIHRLNISKFCRLIVKGTIEQRVMDLQEKKLALAASVLEGTATRKLNKLTTADIRMLFGLDGSSNAN” the “soluble on expression in E. coli” value was “not soluble”. With “MATGIVKWFNDAKGFGFITPDEGGEDLFAHFSAINMEGFKTLKEGQRVSFDVTTGPKGKQAANIQAA” the “soluble on expression in E. coli” value was “soluble”. For “MATRVLSMSARLGPVPQPPAPQDEPVFAQLKPVLGAANPARDAALFPGEELKHAHHRPQAQPAPAQAPQPAQPPATGPRLPPEDLVQTRCEMEKYLTPQLPPVPIIPEHKKYRRDSASVVDQFFTDTEGLPYSINMNVFLPDITHLRTGLYKSQRPCVTHIKTEPVAIFSHQSETTAPPPAPTQALPEFTSIFSSHQTAAPEVNNIFIKQELPTPDLHLSVPTQQGHLYQLLNTPDLDMPSSTNQTAAMDTLNVSMSAAMAGLNTHTSAVPQTAVKQFQGMPPCTYTMPSQFLPQQATYFPPSPPSSEPGSPDRQAEMLQNLTPPPSYAATIASKLAIHNPNLPTTLPVNSQNIQPVRYNRRSNPDLEKRRIHYCDYPGCTKVYTKSSHLKAHLRTHTGEKPYKCTWEGCDWRFARSDELTRHYRKHTGAKPFQCGVCNRSFSRSDHLALHMKRHQN”, the “soluble on expression in E. coli” value was “soluble”. In the case of “MCTEQKPNLLKLSQLKMVLRALGYDPRNSKVQEMTRKIKDGRSMVMGWHGEKDYMDVDELWNALQSKDDEGDSTEDKVTTEMRSAFKLFDPESKGTITVANLKMVAKELGETLADADFDEMIREAGGDNNTGINEQQFFEIMKKTCLY”, the “soluble on expression in E. coli” value is reported as “not soluble”. In the case of “MERVNLGGLGYDNGGVMMTRDPKPRLRWTADLHDRFVDAVAKLGGADKATPKSVLKLMGLKGLTLYHLKSHLQKYRLGQQQGKKQNRTEQNKENAGSSYVHFDNCSQGGISNDSRFDNHQRYIIYEFAFSRHNGFVKLEFDIMLMNTRRQSGNVPFAEAMRHQVDAQQRFQEQLEVQKKLQMRMEAQGKYLLTLLEKAQKSLPCGNAGETDKGQFSDFNLALSGLVGSDRKNEKAGLVTDISHLNGGDSSQEFRLCGEQEKIETGDACVKPESGFVHFDLNSKSGYDLLNCGKYGIEVKPNVIGDRLQ”, the “soluble on expression in E. coli” value is reported as “soluble”. With “MESSGSQGGRAPSYDQPDYGQQDSYDQQSGYDQHQGSYDEQSNYDQQHDSYSQNQQSYHSQRENYSHHTQDDRRDVSRYGEDNRGYGGSQGGGRGRGGYDKDGRGPMTGSSGGDRGGFKNFGGHRDYGPRTDADSESDNSDNNTIFVQGLGEGVSTDQVGEFFKQIGIIKTNKKTGKPMINLYTDKDTGKPKGEATVSFDDPPSAKAAIDWFDGKEFHGNIIKVSFATRRPEFMRGGGSGGGRRGRGGYRGRGGFQGRGGDPKSGDWVCPNPSCGNMNFARRNSCNQCNEPRPEDSRPSGGDFRGRGYGGERGYRGRGGRGGDRGGYGGDRSGGGYGGDRSSGGGYSGDRSGGGYGGDRSGGGYGGDRGGGYGGDRGGGYGGDRGGGYGGDRGGYGGDRGGGYGGDRGGYGGDRGGYGGDRGGYGGDRGGYGGDRSRGGYGGDRGGGSGYGGDRSGGYGGDRSGGGYGGDRGGGYGGDRGGYGGKMGGRNDYRNDQRNRPY” the “soluble on expression in E. coli” value was “not soluble”. For “MEYDNHLDTLGERNSYSKTDPDATFMHMKEDTMKNGQTKPGYNLQIGTENQFLIDFRLFPNPTDTLTLIPFFHSFEQRYNHLPTVGVADSGYGSEEGIRHRGRRCIEPEAVFGQMKHNMAYRRSGMWEKKRLQWTLHSLL”, the “soluble on expression in E. coli” value was “not soluble”. With “MFTQKKSLQHTISQLEERIQELELELKQKDIEKQETISTIHDRVQSVVQEHQLVNNQHNTLQSLVQQLSSCFENVSTRTTHSNELNNEMLQKEQSLIQSIAEIIDCSNEGKESVHRLLIVINKLGEQSQRTSNSMNHLSERSKEIEQIVEVIQNIAAQTNLLALNASIEAARAGEHGKGFAVVANEVRKLAESTAESTKNIGNLTKKIQEEIEKAYDNTKDNLHLVDEGVEMSADTNARIENILVMIQTLQNGATNVIKAIENQKSCNDDILREFANTQQMFQKLNTTIMNHIHDAEKVDVQLSKSLQETVTS” the “soluble on expression in E. coli” value was “not soluble”. With “MGDSGKLEATIDRLLNEEKQMRLAENVAGTRKAATEILQLCFDAKDWKLLNEQILNLSKKRGQLKQAVQSMVQQAMQYIDQTPDIETRIELIKTLNNVSAGKIYVEIERARLTKKLAKIKEEQGQIAEAADLMQEVAVETFGAMAKTEKIAFILEQVRLCLDRQDFVRAQILSRKINPRVFDADTKKDKKKPKEGDNMVEEAPADIPTLLELKRIYYELMIRYYSHNNEYIEICRSYKAIYDIPSVKETPEQWIPVLRKICWFLVLAPHDPMQSSLLNATLEDKNLSEIPDFKMLLKQVVTMEVIQWTSLWNKYKDEFEKEKSMIGGSLGDKAGEDLKLRIIEHNILVVSKYYARITLKRLAELLCLSMEEAEKHLSEMVVSKALIAKIDRPSGIVCFQIAKDSNEILNSWAGNLEKLLDLVEKSCHQIHKETMVHKAALRP” the “soluble on expression in E. coli” value was “not soluble”. In the case of “MGHHHHHHENLYFQSHLYFQSHMTDFVELMNSMSSTFNSDCATSTAEGGTLLNLNLAEDKTLKWRNLANNQFASKEKKHKDKEEEERKEARNQEEIEDIKALLADVVDAAAVKLEEEEAQNAEKVEPHTKCEIEEEGRKEMEYDQDVAKQDSEMEKKQNGKATSITVKMES”, the “soluble on expression in E. coli” value is reported as “soluble”.
